Measurements reported in PubChem BioAssay AID504808 (Drosophila RNAi Screening Center, 2011).
Screen: 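Chromatin factors that keep E2F targets switched off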 (primary screen). Cell system: Drosophila S2 cells. Knock-down reagent: long dsRNA against Drosophila genes. Measurement: 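Dual luciferase plate measurements; E2F-specific signal taken as firefly over Renilla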. Reading the numbers: E2F firefly: higher = more E2F reporter activity; Renilla normaliser: higher = more normaliser reporter signal. Call rule: 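a knock-down counted as active when the firefly/Renilla E2F signal rose above 50%, a threshold chosen arbitrarily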.
The deposit covers about 21,000 reagents; below is a random part of those that have a named target and a result. Over the whole deposit, 18 (0.084%) got an active call. 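Raw counts without plate normalisation, one of two replicates; the ratio scores behind the calls were not deposited.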 A number with no mark means an inactive call. Names joined by + are all predicted targets of the reagent. The record does not give: the amount of reagent, the time to read-out.

gene | dsRNA | E2F firefly, rep 1 | Renilla normaliser, rep 1
CG42676 | DRSC08227 | 71339 | 3400
CG42676 | DRSC08392 | 1.02e5 | 4604
dpr13 (defective proboscis extension response 13) | DRSC06160 | 1.55e5 | 5440
dpr13 (defective proboscis extension response 13) | DRSC06464 | 1.30e5 | 4011
CG3650 | DRSC04401 | 1.01e5 | 4268
CG11226 | DRSC11639 | 1.42e5 | 6915
lambdaTry | DRSC06137 | 93151 | 4080
Cap-D3 + tomb | DRSC02347 | 1.73e5 | 6021
CG31522 | DRSC12005 | 84295 | 3544
CG13689 | DRSC00358 | 1.80e5 | 5958
CG12496 | DRSC18602 | 1.51e5 | 6755
CG15012 | DRSC08465 | 65815 | 2944
Ciao1 | DRSC06170 | 2999 | 182
CG33235 | DRSC19641 | 1.39e5 | 5911
CG11369 | DRSC17779 | 1.26e5 | 6734
Atg14 (Autophagy-related 14) | DRSC14421 | 2008 | 1132
CG15614 | DRSC06567 | 1.43e5 | 4976
CG31642 | DRSC02919 | 87187 | 3725
Snx1 (Sorting nexin 1) | DRSC00531 | 1.50e5 | 4729
CG13299 | DRSC09973 | 97854 | 4086
Dhc98D (Dynein heavy chain at 89D) | DRSC16645 | 1.19e5 | 6901

Next part (2 carried over from the part before).
gene | dsRNA | E2F firefly, rep 1 | Renilla normaliser, rep 1
CG13299 | DRSC09973 | 97854 | 4086
Dhc98D (Dynein heavy chain at 89D) | DRSC16645 | 1.19e5 | 6901
Duox (Dual oxidase) | DRSC00571 | 1.72e5 | 5608
CG1468 | DRSC17946 | 7254 | 764
RhoBTB (Rho-related BTB domain containing) | DRSC11877 | 75215 | 4320
Ntf-2 (Nuclear transport factor-2) | DRSC20552 | 1.32e5 | 4470
CG11400 | DRSC06070 | 1.55e5 | 5823
glec (gliolectin) | DRSC16958 | 1.57e5 | 6752
CG11756 | DRSC19424 | 1.37e5 | 6662
CG12164 | DRSC06115 | 86970 | 3817
CG5011 | DRSC00039 | 1.52e5 | 5520
CG5011 | DRSC00674 | 81394 | 3682
CG12963 | DRSC06265 | 98351 | 4123
egh (egghead) | DRSC18771 | 1.16e5 | 5994
CG7634 | DRSC11843 | 1.48e5 | 7713
